Measurements from patent publication US20250092140A1.
These are yes or no findings as the source states them, for the method shown. Some binding calls cover weakened binding; strength is not graded here.

By UniProt entry, the sequences of proteins in these tests, tags left out. Residues count along the entry.
UniProt O14931, residues 19-138: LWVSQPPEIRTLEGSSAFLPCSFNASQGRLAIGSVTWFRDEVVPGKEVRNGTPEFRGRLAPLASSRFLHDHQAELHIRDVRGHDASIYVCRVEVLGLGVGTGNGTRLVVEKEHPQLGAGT

Target: human-NKP30-His (human) (UniProt O14931)
Assay: ELISA, human-NKP30-His coated

B1: NKP30 monoclonal antibody (antibody, V domains shown)
VH: EVQLVESGGGLVQPGGSLRLSCAASGITFSRSVMGWFRQAPGKLRELVAGITSDDNTDYADSVKGRFTISRDNSKNTLYLQMNSLRAEDTAVYYCNILPDSRLGWGQGTLVTVSS
binding: binds
